# Percent effect of library compounds

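Whole-parasite assay of Trypanosoma brucei over 72 hours; the read-out is not stated. Compounds at 30 µM. The record gives no direction; compounds that gave an IC50 in retests scored well above the rest, so higher reads as stronger inhibition. Values scatter widely below zero; nearly all retest evidence comes from the higher of the two concentrations used. Of about 64,000 compounds tested this way, about 940 (1.5%) reached 50% or more in at least one test.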

Each number is a percent effect as filed.
How 0% and 100% were set is not recorded. Most values in the screen are low, and negative values occur.
Compounds were drawn at random from those tested, without regard to their results.

structure,effect
CCC1CN(CC(=O)NCCN2CCCC2)c2ccccc2S1 (stereo not shown),8.135%
[H][C@@]12CCN(c3nncs3)C[C@@]1([H])O[C@@H](C(=O)NCCc1ccncc1)C2,-26.09%
Cc1nc(CC(=O)N2CCC3(CC2)CC(=O)N(CC2CCCO2)C3)cs1 (stereo not shown),-42.79%
CCCc1nc(N2CCCCC2)c2c(n1)c(C)nn2CC,-23.44%
Cc1ccc2c(c1)C1(CC2)CCN(c2nncs2)CC1,-52.06%
Cc1cc(NC(=O)Cn2cnc(-c3cccs3)cc2=O)sn1,-24.69%
CCNc1ncc(C(=O)N2CCOC(CCCC(C)C)C2)cn1 (stereo not shown),-18.1%
CCC(C)(C)NC(=O)c1ccc(NC(=O)NCc2cc(C)no2)cc1,-42.39%
CCS(=O)(=O)N1CCc2nc(N3CCOCC3)nc(N(C)C)c2CC1,-52.85%
[H][C@@]12CN(CC3CCCCC3)CC[C@]1([H])N(C(C)=O)C[C@H]2c1ccsc1,-0.2851%
OCCN1CCCC(c2nccnc2Oc2ccccc2)C1 (stereo not shown),6.712%
COc1cc(-c2cc(-c3ccn(C)c3)nc(N)c2C#N)cc(OC)c1O,-22.54%
CCCS(=O)(=O)N1CCN(CC(F)(F)F)CC1,-12.04%
CCn1c(CN2CCC(O)(c3ccc4c(c3)OCO4)CC2)cnc1SC.O=C(O)CC(O)(CC(=O)O)C(=O)O,-5.268%
CC(NC(=O)C1CCCC1)c1nc(-c2ccccc2)c[nH]1 (stereo not shown),-11.98%
O=C(Cn1cccn1)Nc1ccc(N2CCOCC2)cc1,-33%
COC1CCCN(C(=O)NCCCF)C1 (stereo not shown),-11.05%
COc1ccccc1N1CCC(CNCc2c(C)nn(C)c2OC)C1 (stereo not shown),-89.12%
CCN(C)S(=O)(=O)NC(C)c1cnc(N(C)C2CCCCC2)nc1C (stereo not shown),-76.31%
CS(=O)(=O)NCC1(O)CCCN(C(=O)CCn2cc(Cl)cn2)CC1 (stereo not shown),0.5328%
CS(=O)(=O)CC(=O)N(CCN1CCOCC1)Cc1ccco1,-43.69%
CC(C)C(=O)Nc1ncn(Cc2cccc(Br)c2)n1,-10.43%
CC(=O)Nc1cccc(C(=O)N2CCc3c(nc(N(C)C)[nH]c3=O)C2)c1,-7.017%
CC1=C(C(=O)N2CCOC(Cc3cccc(C(F)(F)F)c3)C2)OCCO1 (stereo not shown),-77.22%
COC(=O)CN(C(=O)c1ccc(Cl)o1)c1cccc(F)c1,-24.79%
Cc1cccc(CN2CCc3onc(Cn4cccc4)c3C2)n1.O=C(O)C(F)(F)F,-44.01%
CCc1cc(=O)[nH]c2nnc(SCC(=O)NC(C)C)n12,-31.66%
Cc1cnn(CC(=O)N2CCCN(c3ncccc3C#N)CC2)c1,7.847%
COCCCC1(CO)CCCN(CCc2ccccc2)C1 (stereo not shown),60.85%
O=S(=O)(N1CCCCCC1)N1CCCN(CC2CCCO2)CC1 (stereo not shown),-0.8806%
COCc1nc2cc3c(cc2c(=O)o1)OCCCO3,-66.35%
O=C(CCc1ccncc1)N1CCc2cc(Cl)cc(Cl)c2C1,-55.13%
COCC(C)(O)CNC(=O)Nc1cccc(OC)c1OC (stereo not shown),1.981%
COCCOCC(=O)Nc1ccccc1F,-17.68%
CCSCCC(C)N(C)C(=O)c1cc(C)no1 (stereo not shown),-22.27%
CCC(c1ccncc1)N(C)S(C)(=O)=O (stereo not shown),8.628%
Cl.Cl.OC(CN1CCN(Cc2cc(F)cc(F)c2)CC1)C1CC1 (stereo not shown),-20.99%
CC(=O)NC1CCCN(C(=O)CNc2cccc(C)c2Cl)C1 (stereo not shown),17.64%
CNc1cncc(C2CCN(S(C)(=O)=O)CC2)n1,8.245%
O=C(O)C(F)(F)F.O=C(O)C(F)(F)F.[H][C@]12CCCC(N(C)Cc3ccccn3)[C@@]1([H])CN(CC1CC1)C2 (stereo partly shown),3.437%
CC(=O)N1CCN(C[C@H]2CC[C@@H](Cc3ccc4c(c3)OCO4)O2)CC1,-0.9169%
CC(C)(C)c1cn(C2CCN(C(=O)c3cnccn3)CC2)nn1,-6.918%
Cc1cccnc1CC(C)Nc1nc(N)nc2c1CCNC2 (stereo not shown),-8.238%
CC(=O)c1cnc(NCCN2CCCC2)nc1C,-43.52%
COc1ccnc(NC(=O)c2cnccn2)c1,-2.243%
O=C1CCCN1CCCC(=O)N1CCCC(Cc2cccnc2)C1 (stereo not shown),-5.758%
[H][C@@]12CC(C)=CC[C@]1([H])CN(C(=O)c1ccc(-c3cc[nH]n3)cc1)C2,55.2%
[H][C@@]12CCN(C(=O)c3sccc3C)C[C@]1(c1nc(C)no1)CCO2,14.56%
CCc1cc(N(C)CCc2c(C)n[nH]c2C)ncn1,-33.51%
O=S(=O)(Nc1cnn(C2CCOCC2)c1)c1c(F)cccc1F,9.48%
CCn1ncc(CN2CCN(C(=O)Cn3cc(Br)c(C)n3)CC2)c1C,-29.7%
CC(=O)c1ccc(S(=O)(=O)Nc2cnn(C3CCOCC3)c2)cc1,-15.14%
Cc1nc(O)cc(CCNC(=O)c2ccccc2N2CCCC2)n1,-124.3%
Cc1cc(C)n(-c2cncc(NCCC(=O)NC(C)C)n2)n1,-2.891%
O=C(O)C(F)(F)F.[H][C@]12CCN(Cc3nccs3)C[C@@]1([H])OCCN(C(=O)c1ccco1)C2,-79.01%
O=C(C1CCOCC1)N1CCC2(CCC(C(=O)N3CCCC3)O2)CC1 (stereo not shown),-7.739%
CN(C)CCCN(C)C1CCN(c2cccc(-c3cscn3)c2)CC1,17.15%
N#Cc1ccc(N2CC3(CCN(c4nccs4)C3)C2)nc1.O=CO.O=CO,-55.96%
[H][C@@]12CS(=O)(=O)C[C@]1([H])N(Cc1ccc(F)c(C)c1)CCN2C(=O)C(C)C,-18.34%
Cc1ccc(C(=O)N2CCCC(Nc3ccc(F)cc3)C2)cc1 (stereo not shown),-28.83%
CN1C(=O)c2ccc(C(=O)N(Cc3cnn(C)c3)C3CC3)cc2C1=O,-39.34%
Cc1nc2cc(=O)[nH]n2c(C)c1CNC(=O)c1cnn(C(C)(C)C)c1,-19.62%
Cc1ccc(C(=O)N(C)Cc2cc(Br)cs2)c(=O)[nH]1,-9.443%
CC(=O)N(Cc1noc(C)n1)C1CCN(CC2(O)CCCCC2)C1 (stereo not shown),-21.71%
CCC(NC(=O)CS(=O)(=O)C1CCCC1)c1cc(F)ccc1F (stereo not shown),-48.12%
c1ccc(-n2cc(CN3CCCCC3Cn3cncn3)nn2)cc1 (stereo not shown),-6.627%
Cc1ccc2c(c1)C1(CCN(S(C)(=O)=O)CC1)CN2C(=O)N(C)C,-93.51%
CCN1C(=O)CC[C@]12CC[C@@H](NC(=O)c1ccncc1F)CC2.O=C(O)C(F)(F)F,5.821%
CCC1CN(Cc2ccccc2)CCN1Cc1nnc(C2CCC2)o1 (stereo not shown),-69.49%
COc1ccc2cc(C(=O)N3CCCCC3CC(N)=O)[nH]c2c1 (stereo not shown),22.46%
Cn1nc(C(=O)NCc2cccc(Cn3ccnc3)c2)ccc1=O,-2.121%
Cc1cc(C(=O)N(C)C(C)CC(C)C)on1 (stereo not shown),-21.62%
O=C(O)C(F)(F)F.[H][C@@]12CCN(Cc3ccccc3)C[C@]1([H])O[C@H](C(=O)NC1CC1)C2,-13.89%
CCc1c(C)sc(NC(=O)CN2CCOCC2)c1C(=O)OC,-24.98%
O=C(O)C(F)(F)F.[H][C@]12CCN(C(=O)c3cc[nH]n3)CC[C@@]1([H])S(=O)(=O)N(Cc1ccncc1)C2,-28.68%
CCN(Cc1ccccc1C)S(C)(=O)=O,-11.15%
Cc1ccc2c(n1)N(CCn1cccn1)CCN(S(C)(=O)=O)C2.O=C(O)C(F)(F)F,-36.42%
O=C(O)C(F)(F)F.[H][C@@]12CCN(Cc3ccc(OC)cc3)[C@]1([H])CC[C@H](C(=O)NCC1CC1)O2,-47.8%
Cn1c(CNc2c(F)cccc2-n2cccn2)cc(=O)n(C)c1=O,-19.64%
Cc1cc(C)n2c(CCCNS(=O)(=O)c3cccs3)nnc2n1,-53.36%
Cc1cs/c(=N\C(=O)Cn2nc(N3CCOCC3)ccc2=O)[nH]1,3.372%
CCc1ocnc1C(=O)N1CCN(c2nncc3ccccc23)CC1,-20.1%
CCC1CCCCN1C(=O)Cn1nc(-c2ccc(C)s2)cc(N)c1=O (stereo not shown),-6.399%
Cc1cc(C(=O)NC(C)c2nnn[nH]2)c2ccc(C)c(C)c2n1 (stereo not shown),-43.29%
COc1cc(OC)c(CNC(=O)NCC(=O)N(C)C)c(OC)c1,2.52%
O=C(O)C(F)(F)F.O=C(O)C(F)(F)F.[H][C@@]12CN(Cc3ccoc3)CCO[C@]1([H])CN(Cc1cnn(C)c1)C2,1.742%
COCc1ncn2c1CN(S(=O)(=O)c1cccc(OC)c1)CC2,-23.25%
NCCc1cccc(CN2CCN(c3ccccc3)C(=O)C2)c1,15.66%
[H][C@@]12CS(=O)(=O)C[C@]1([H])N(C(=O)c1ccnn1C)CCN2C(=O)C1CCC1,6.855%
Cc1cc(N2Cc3cnn(CCO)c3C2)nc(-c2ccccc2O)n1,-14.91%
CNC(=O)CCN1CCC(c2nnc(Cn3cccn3)n2C2CC2)CC1,-22.63%
COc1ccccc1C1(CNCc2cccc(C#N)c2)CCOCC1,67.18%

The last 9 entries again:

| structure | effect |
|---|---|
| `Cc1cc(C(=O)NC(C)c2nnn[nH]2)c2ccc(C)c(C)c2n1` (stereo not shown) | -43.29% |
| `COc1cc(OC)c(CNC(=O)NCC(=O)N(C)C)c(OC)c1` | 2.52% |
| `O=C(O)C(F)(F)F.O=C(O)C(F)(F)F.[H][C@@]12CN(Cc3ccoc3)CCO[C@]1([H])CN(Cc1cnn(C)c1)C2` | 1.742% |
| `COCc1ncn2c1CN(S(=O)(=O)c1cccc(OC)c1)CC2` | -23.25% |
| `NCCc1cccc(CN2CCN(c3ccccc3)C(=O)C2)c1` | 15.66% |
| `[H][C@@]12CS(=O)(=O)C[C@]1([H])N(C(=O)c1ccnn1C)CCN2C(=O)C1CCC1` | 6.855% |
| `Cc1cc(N2Cc3cnn(CCO)c3C2)nc(-c2ccccc2O)n1` | -14.91% |
| `CNC(=O)CCN1CCC(c2nnc(Cn3cccn3)n2C2CC2)CC1` | -22.63% |
| `COc1ccccc1C1(CNCc2cccc(C#N)c2)CCOCC1` | 67.18% |

Data taken from ChEMBL document CHEMBL3988442, “University of Dundee, Small-Polar-MMV Screening Library” (2021).